# Library screen at single concentrations

Chains of the proteins cited; added tags and fusions are not shown. Residues count along the entry.
UniProt A4I591, 1-473: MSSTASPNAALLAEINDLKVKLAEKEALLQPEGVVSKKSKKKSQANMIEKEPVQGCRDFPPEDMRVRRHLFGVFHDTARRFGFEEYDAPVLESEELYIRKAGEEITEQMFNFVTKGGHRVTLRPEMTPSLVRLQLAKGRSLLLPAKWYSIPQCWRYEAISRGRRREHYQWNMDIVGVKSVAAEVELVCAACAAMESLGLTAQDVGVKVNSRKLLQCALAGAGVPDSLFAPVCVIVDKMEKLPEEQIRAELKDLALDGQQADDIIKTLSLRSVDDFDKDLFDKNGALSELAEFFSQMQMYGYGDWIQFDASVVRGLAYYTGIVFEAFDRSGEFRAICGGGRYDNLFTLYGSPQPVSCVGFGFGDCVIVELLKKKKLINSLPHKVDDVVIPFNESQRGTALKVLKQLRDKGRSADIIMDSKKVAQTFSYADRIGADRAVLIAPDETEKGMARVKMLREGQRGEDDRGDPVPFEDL
UniProt Q4DA54, 1-478: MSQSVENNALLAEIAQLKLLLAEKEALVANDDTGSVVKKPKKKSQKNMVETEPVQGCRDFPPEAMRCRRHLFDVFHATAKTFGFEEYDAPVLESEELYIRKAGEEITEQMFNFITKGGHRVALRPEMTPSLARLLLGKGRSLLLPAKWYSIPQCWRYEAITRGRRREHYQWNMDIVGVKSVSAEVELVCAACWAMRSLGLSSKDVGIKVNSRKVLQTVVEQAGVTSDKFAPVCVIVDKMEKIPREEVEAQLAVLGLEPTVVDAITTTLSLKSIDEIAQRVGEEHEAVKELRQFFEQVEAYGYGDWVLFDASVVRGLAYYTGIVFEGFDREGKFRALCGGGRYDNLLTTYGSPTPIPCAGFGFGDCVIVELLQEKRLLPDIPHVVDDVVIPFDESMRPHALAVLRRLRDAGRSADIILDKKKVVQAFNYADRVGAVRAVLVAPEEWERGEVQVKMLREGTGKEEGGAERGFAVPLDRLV

LiHisRS: 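Enzyme assay of histidyl-tRNA synthetase; the read-out is not stated. Target: Histidine-tRNA ligase, Leishmania infantum (UniProt A4I591). Tested at 30 µM. The record gives no direction; compounds that gave an IC50 in retests scored well above the rest, so higher reads as stronger inhibition. The assay is labelled LdHisRS but filed under L. infantum. About 69,000 compounds were tested under these conditions; 0.6% (about 410) showed 50% or more at least once.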
TcHisRS: 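Enzyme assay of histidyl-tRNA synthetase; the read-out is not stated. Target: Histidine-tRNA ligase, Trypanosoma cruzi CL Brener (UniProt Q4DA54). Concentration: 30 µM. Higher reads as stronger inhibition (inferred: compounds with an IC50 in retests scored well above the rest). Size under these conditions: about 69,000 compounds, about 31 of them at 50% or above in at least one test.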

Values are the deposited “Percent Effect”, in %. The record does not define 0% and 100%; most values in the screen are far below 50% and negative numbers occur (in some assays of this library far below -100). Compounds were drawn at random from those tested, without regard to their results.

Compound: CNC(=O)c1ccccc1NCc1ncnn1C
LiHisRS: 19.75
TcHisRS: 6.748

Compound: CC(C)[C@@H]1CN(Cc2ccccc2C#N)C[C@H]1NC(=O)N(C)C
LiHisRS: 20.83
TcHisRS: 7.595

Compound: O=c1cc(Cn2ccnc2)nc2n1CCCN(Cc1ccc(F)cc1)C2
LiHisRS: 0
TcHisRS: 0

Compound: COCC1CC2(CCN(CC3CC3)CC2)CN1Cc1csc(C)n1 (stereo not shown)
LiHisRS: 9.402
TcHisRS: 3.743

Compound: O=C1C(CS(=O)(=O)Nc2ccccc2)=NC(=O)n2cccc21
LiHisRS: 0
TcHisRS: -2.924

Compound: O=C(NCCCNc1ccc(C(F)(F)F)cn1)c1ccc(F)cc1F
LiHisRS: 13.27
TcHisRS: 7.289

Compound: Cc1cc(C)cc(-c2cc(C3CCOC3)c(C#N)c(N)n2)c1 (stereo not shown)
LiHisRS: 0
TcHisRS: 3.061

Compound: Cc1cccc(CN2C[C@@H](NC(=O)C3CC3)[C@H]3OCCC[C@H]32)n1
LiHisRS: 9.735
TcHisRS: -1.075

Compound: Cc1ccc(C(CNCc2cccc3c2OCO3)N2CCOCC2)o1 (stereo not shown)
LiHisRS: 13.16
TcHisRS: 0.5848

Compound: CS(=O)(=O)NCCC(=O)NC1CCc2nccn2C1 (stereo not shown)
LiHisRS: 4.854
TcHisRS: 4.564

Compound: O=C(NCCCn1ccnc1)N1CCCC1c1cccs1 (stereo not shown)
LiHisRS: 2.128
TcHisRS: -1.527

Compound: Cc1ccoc1C(=O)N1CCCN(Cc2cnn(C)c2)CC1
LiHisRS: 15.04
TcHisRS: 4.956

Compound: C=C(C)COc1ccccc1NC(=O)N1CCOCC(CO)C1 (stereo not shown)
LiHisRS: 15.56
TcHisRS: 14.29

Compound: Cc1sc(-c2ccco2)nc1C(=O)N(CC1CCOC1)C1CC1 (stereo not shown)
LiHisRS: 16.44
TcHisRS: 3.784

Compound: Cn1cnc(S(=O)(=O)NCC2CCN(C(=O)Oc3ccccc3)CC2)c1
LiHisRS: 10.17
TcHisRS: 4.39

Compound: CC(C)n1ccnc1C1CCN(C(=O)c2ccccn2)CC1
LiHisRS: 13.6
TcHisRS: 2.513

Compound: CCCn1ncc(CN2C[C@@H]3CCCN3C[C@H]2CCSC)c1C
LiHisRS: 10
TcHisRS: -17.98

Compound: O=C1CNc2ncnc(Nc3cnn(Cc4ccccc4F)c3)c2N1
LiHisRS: 27.47
TcHisRS: 11.88

Compound: Cc1ncsc1C(=O)NCCNC(=O)OC(C)(C)C
LiHisRS: 18.58
TcHisRS: 3.982

Compound: Cn1cc(NC(=O)CCc2ccsc2)ccc1=O
LiHisRS: 102.9
TcHisRS: 18.18

Compound: O=C(c1cnccn1)N1CCCC(Cc2ccccn2)C1 (stereo not shown)
LiHisRS: 4.348
TcHisRS: 2.273

Compound: CC(C)[C@@H]1CN(Cc2ccccn2)C[C@H]1NS(=O)(=O)N(C)C
LiHisRS: 9.859
TcHisRS: 3.867

Compound: Clc1ccc(C2(CNC3=NCCN3)CCCCC2)cc1
LiHisRS: 50
TcHisRS: 3.191

Compound: Cc1ccccc1OCCCC(=O)NCc1ccnc(O)c1
LiHisRS: 8.333
TcHisRS: 0.9804

Compound: CCO[C@H]1CN(CC2CC2)[C@@H]2CCCO[C@H]12
LiHisRS: 11.88
TcHisRS: 9.548

Compound: O=C(CN1CCC(c2ccnn2CCO)CC1)NCc1ccco1
LiHisRS: 1.695
TcHisRS: 4

Compound: Cc1cc(CN(C2CC2)C(C)C(C)C)no1 (stereo not shown)
LiHisRS: 10
TcHisRS: 12.05

Compound: CCn1cc(N2Cc3nc(N4CCOCC4)ncc3C2=O)cn1
LiHisRS: 17.48
TcHisRS: 0.5464

Compound: O=C(NC1CC1)C1CCN(Cn2nc(-c3ccccc3)oc2=O)CC1
LiHisRS: 18.28
TcHisRS: 14.88

The last 2 entries again:

| Compound | LiHisRS | TcHisRS |
|---|---|---|
| `CCn1cc(N2Cc3nc(N4CCOCC4)ncc3C2=O)cn1` | 17.48 | 0.5464 |
| `O=C(NC1CC1)C1CCN(Cn2nc(-c3ccccc3)oc2=O)CC1` | 18.28 | 14.88 |

Source: ChEMBL document CHEMBL3988442, “University of Dundee, Small-Polar-MMV Screening Library” (2021).